# Earlier results, collected in patent US20100016430A1, “MODIFIED COCONUT OILS WITH BROAD ANTIMICROBIAL SPECTRUM” (MALAYSIAN AGRICULTERAL RESEARCH AND DEVELOPMENT IN, priority 2005, published 2010).
# Some results were stated once for a whole list of compounds, not compound by compound. At least one structure is not confirmed: it was looked up by name or label, or the drawing left a doubt.
# Tested on: C. trachomatis
# Details: Bergsson et al. 1998
smiles,measurement,value
CCCCCCCCCC(=O)OCC(O)CO (stereo not shown) [monocaprin],Reduction in the infectivity titer,"greater than 10,000 fold"
